Test results as given in the supplement of paper PMC8728848.
Some of the results follow.

Key:
Test in all cases: glycan array binding signal (z-score within array); higher = stronger binding
Conditions in all cases: glycan notation: IUPAC condensed, linker removed
[1] = molecular target: Neu5Ac(a2-6)Gal(b1-3)GlcNAc(b1-3)[Gal(b1-4)GlcNAc(b1-6)]Gal(b1-4)Glc
In short: (§1)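 The binding signal is a Z-score computed within each array and averaged over linkers. Arrays of the same protein sequence at different concentrations or buffers were also averaged together. Data originate from 3228 arrays in the Consortium for Functional Glycomics database, kept only where the protein sequence was available.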

Neu5Ac(a2-6)Gal(b1-4)Glc = molecular target: Neu5Ac(a2-6)Gal(b1-4)Glc
In short: as §1

[2] = molecular target: Neu5Ac(a2-6)Gal(b1-4)GlcNAc
In short: as §1

[3] = molecular target: Neu5Ac(a2-6)Gal(b1-4)GlcNAc(b1-2)Man
In short: as §1

[4] = molecular target: Neu5Ac(a2-6)Gal(b1-4)GlcNAc(b1-2)Man(a1-3)Man(b1-4)GlcNAc(b1-4)GlcNAc
In short: as §1

[5] = molecular target: Neu5Ac(a2-6)Gal(b1-4)GlcNAc(b1-2)Man(a1-3)[Gal(b1-4)GlcNAc(b1-2)Man(a1-6)]Man(b1-4)GlcNAc(b1-4)GlcNAc
In short: as §1

[6] = molecular target: Neu5Ac(a2-6)Gal(b1-4)GlcNAc(b1-2)Man(a1-3)[GlcNAc(b1-2)Man(a1-6)]Man(b1-4)GlcNAc(b1-4)GlcNAc
In short: as §1

[7] = molecular target: Neu5Ac(a2-6)Gal(b1-4)GlcNAc(b1-2)Man(a1-3)[GlcNAc(b1-4)][Neu5Ac(a2-6)Gal(b1-4)GlcNAc(b1-2)Man(a1-6)]Man(b1-4)GlcNAc(b1-4)GlcNAc
In short: as §1

[8] = molecular target: Neu5Ac(a2-6)Gal(b1-4)GlcNAc(b1-2)Man(a1-3)[Man(a1-6)]Man(b1-4)GlcNAc(b1-4)GlcNAc
In short: as §1

[9] = molecular target: Neu5Ac(a2-6)Gal(b1-4)GlcNAc(b1-2)Man(a1-3)[Neu5Ac(a2-3)Gal(b1-4)GlcNAc(b1-2)Man(a1-6)]Man(b1-4)GlcNAc(b1-4)GlcNAc
In short: as §1

[10] = molecular target: Neu5Ac(a2-6)Gal(b1-4)GlcNAc(b1-2)Man(a1-3)[Neu5Ac(a2-6)Gal(b1-4)GlcNAc(b1-2)Man(a1-6)]Man(b1-4)GlcNAc(b1-4)GlcNAc
In short: as §1

[11] = molecular target: Neu5Ac(a2-6)Gal(b1-4)GlcNAc(b1-2)Man(a1-3)[Neu5Ac(a2-6)Gal(b1-4)GlcNAc(b1-2)Man(a1-6)]Man(b1-4)GlcNAc(b1-4)[Fuc(a1-6)]GlcNAc
In short: as §1

[12] = molecular target: Neu5Ac(a2-6)Gal(b1-4)GlcNAc(b1-2)Man(a1-6)Man(b1-4)GlcNAc(b1-4)GlcNAc
In short: as §1

[13] = molecular target: Neu5Ac(a2-6)Gal(b1-4)GlcNAc(b1-2)Man(a1-6)[Gal(b1-4)GlcNAc(b1-2)Man(a1-3)]Man(b1-4)GlcNAc(b1-4)GlcNAc
In short: as §1

[14] = molecular target: Neu5Ac(a2-6)Gal(b1-4)GlcNAc(b1-2)Man(a1-6)[GlcNAc(b1-2)Man(a1-3)]Man(b1-4)GlcNAc(b1-4)GlcNAc
In short: as §1

[15] = molecular target: Neu5Ac(a2-6)Gal(b1-4)GlcNAc(b1-2)Man(a1-6)[Man(a1-3)]Man(b1-4)GlcNAc(b1-4)GlcNAc
In short: as §1

[16] = molecular target: Neu5Ac(a2-6)Gal(b1-4)GlcNAc(b1-2)[Neu5Ac(a2-6)Gal(b1-4)GlcNAc(b1-4)]Man(a1-3)[GlcNAc(b1-4)][Neu5Ac(a2-6)Gal(b1-4)GlcNAc(b1-2)[Neu5Ac(a2-6)Gal(b1-4)GlcNAc(b1-6)]Man(a1-6)]Man(b1-4)GlcNAc(b1-4)GlcNAc
In short: as §1

[17] = molecular target: Neu5Ac(a2-6)Gal(b1-4)GlcNAc(b1-2)[Neu5Ac(a2-6)Gal(b1-4)GlcNAc(b1-4)]Man(a1-3)[GlcNAc(b1-4)][Neu5Ac(a2-6)Gal(b1-4)GlcNAc(b1-4)Man(a1-6)]Man(b1-4)GlcNAc(b1-4)GlcNAc
In short: as §1

[18] = molecular target: Neu5Ac(a2-6)Gal(b1-4)GlcNAc(b1-2)[Neu5Ac(a2-6)Gal(b1-4)GlcNAc(b1-6)]Man(a1-6)[Neu5Ac(a2-6)Gal(b1-4)GlcNAc(b1-2)Man(a1-3)][GlcNAc(b1-4)]Man(b1-4)GlcNAc(b1-4)GlcNAc
In short: as §1

[19] = molecular target: Neu5Ac(a2-6)Gal(b1-4)GlcNAc(b1-3)Gal(b1-3)GlcNAc
In short: as §1

[20] = molecular target: Neu5Ac(a2-6)Gal(b1-4)GlcNAc(b1-3)Gal(b1-4)GlcNAc
In short: as §1

[21] = molecular target: Neu5Ac(a2-6)Gal(b1-4)GlcNAc(b1-3)Gal(b1-4)GlcNAc(b1-2)Man(a1-3)[Neu5Ac(a2-6)Gal(b1-4)GlcNAc(b1-3)Gal(b1-4)GlcNAc(b1-2)Man(a1-6)]GalNAc
In short: as §1

[22] = molecular target: Neu5Ac(a2-6)Gal(b1-4)GlcNAc(b1-3)Gal(b1-4)GlcNAc(b1-3)Gal(b1-4)GlcNAc
In short: as §1

[23] = molecular target: Neu5Ac(a2-6)Gal(b1-4)GlcNAc(b1-3)Gal(b1-4)GlcNAc(b1-3)Gal(b1-4)GlcNAc(b1-2)Man(a1-3)[Neu5Ac(a2-6)Gal(b1-4)GlcNAc(b1-3)Gal(b1-4)GlcNAc(b1-3)Gal(b1-4)GlcNAc(b1-2)Man(a1-6)]GalNAc
In short: as §1

[24] = molecular target: Neu5Ac(a2-6)Gal(b1-4)GlcNAc(b1-3)Gal(b1-4)GlcNAc(b1-3)GalNAc
In short: as §1

[25] = molecular target: Neu5Ac(a2-6)Gal(b1-4)GlcNAc(b1-3)Gal(b1-4)GlcNAc(b1-3)[Neu5Ac(a2-6)Gal(b1-4)GlcNAc(b1-3)Gal(b1-4)GlcNAc(b1-6)]GalNAc
In short: as §1

[26] = molecular target: Neu5Ac(a2-6)Gal(b1-4)GlcNAc(b1-3)Gal(b1-4)GlcNAc(b1-6)[Gal(b1-3)]GalNAc
In short: as §1

[27] = molecular target: Neu5Ac(a2-6)Gal(b1-4)GlcNAc(b1-3)Gal(b1-4)[Fuc(a1-3)]GlcNAc(b1-3)Gal(b1-4)[Fuc(a1-3)]GlcNAc
In short: as §1

[28] = molecular target: Neu5Ac(a2-6)Gal(b1-4)GlcNAc(b1-3)GalNAc
In short: as §1

[29] = molecular target: Neu5Ac(a2-6)Gal(b1-4)GlcNAc(b1-3)[Neu5Ac(a2-6)Gal(b1-4)GlcNAc(b1-6)]GalNAc
In short: as §1

[30] = molecular target: Neu5Ac(a2-6)Gal(b1-4)GlcNAc(b1-6)GalNAc
In short: as §1

[31] = molecular target: Neu5Ac(a2-6)Gal(b1-4)GlcNAc(b1-6)[Gal(b1-3)GlcNAc(b1-3)]Gal(b1-4)Glc
In short: as §1

[32] = molecular target: Neu5Ac(a2-6)Gal(b1-4)GlcNAc(b1-6)[Gal(b1-3)]GalNAc
In short: as §1

[33] = molecular target: Neu5Ac(a2-6)Gal(b1-4)GlcNAc6S
In short: as §1

Neu5Ac(a2-6)GalNAc = molecular target: Neu5Ac(a2-6)GalNAc
In short: as §1

[34] = molecular target: Neu5Ac(a2-6)GalNAc(b1-4)GlcNAc
In short: as §1

[35] = molecular target: Neu5Ac(a2-6)GalNAc(b1-4)GlcNAc6S
In short: as §1

[36] = molecular target: Neu5Ac(a2-6)GlcNAc(b1-4)GlcNAc
In short: as §1

B1: HopZSSI-T (Helicobacter pylori), B5Z6D0 (protein)
chain: MGSSHHHHHHSSGLVPRGSHMENLYFQGEDNGFFISAGYQIGEAAQMVKNTGELKKLSDTYENLSNLLTNFNNLNQAVTNASSPSEINAAIDNLKANTQGLTGEKTNSPAYQAVYLALNAAVGLWNVIAYNVQCGPGNSSQQSVTFEGQPGHNSSSINCNLTGYNNGVSGPLSIDNFKQLNQAYQVLQQALKQGVPVLNNTNQKIEVKVTTQTNGQSSKETTTTTTTNDAQTLLQEASKMIDVLTTNCPWVNHNPGQNGGAPWGLIRQECVSGFATEFSAVTSMIKNAQEIVTQAQSLNANQNNQNAPQDFNPYTSADRAFAQNMLNHAQAQAKILELADQMKKDLNTIPSQFITNYLAACRIDGTTPSQGVTNNTWGAGCAYVEETITALNNSLAHFGTQAEQIKQSELLARTILDFRGSLSTLNSTYNSITTTASNTPNSPFLKNLISQSTNPNNPGGLQAVYQVNQSAYSQLLSATQELGHNPFRRIGLISSQT
[1]
  glycan array binding signal (z-score): -0.472
Neu5Ac(a2-6)Gal(b1-4)Glc
  glycan array binding signal (z-score): -0.411
[2]
  glycan array binding signal (z-score): -0.343
[3]
  glycan array binding signal (z-score): -0.18
[4]
  glycan array binding signal (z-score): -0.42
[5]
  glycan array binding signal (z-score): -0.154
[6]
  glycan array binding signal (z-score): -0.288
[7]
  glycan array binding signal (z-score): -0.701
[8]
  glycan array binding signal (z-score): 0.53
[9]
  glycan array binding signal (z-score): -0.456
[10]
  glycan array binding signal (z-score): -0.19
[11]
  glycan array binding signal (z-score): -0.442
[12]
  glycan array binding signal (z-score): -0.266
[13]
  glycan array binding signal (z-score): 0.162
[14]
  glycan array binding signal (z-score): 0.108
[15]
  glycan array binding signal (z-score): 0.105
[16]
  glycan array binding signal (z-score): 0.065
[17]
  glycan array binding signal (z-score): -0.179
[18]
  glycan array binding signal (z-score): -0.032
[19]
  glycan array binding signal (z-score): -0.157
[20]
  glycan array binding signal (z-score): -0.218
[21]
  glycan array binding signal (z-score): 0.552
[22]
  glycan array binding signal (z-score): 1.37
[23]
  glycan array binding signal (z-score): 0.709
[24]
  glycan array binding signal (z-score): 0.002
[25]
  glycan array binding signal (z-score): -0.839
[26]
  glycan array binding signal (z-score): -0.191
[27]
  glycan array binding signal (z-score): -0.258
[28]
  glycan array binding signal (z-score): 0.356
[29]
  glycan array binding signal (z-score): -0.332
[30]
  glycan array binding signal (z-score): 0.043
[31]
  glycan array binding signal (z-score): 0.45
[32]
  glycan array binding signal (z-score): 3.23
[33]
  glycan array binding signal (z-score): 0.909
Neu5Ac(a2-6)GalNAc
  glycan array binding signal (z-score): 2.01
[34]
  glycan array binding signal (z-score): -0.534
[35]
  glycan array binding signal (z-score): 0.493
[36]
  glycan array binding signal (z-score): -0.176
